The target of assay [1] is human recombinant Annexin A2, oxidized by H2O2 (human) (UniProt P07355). Nature of the assay: SDS-PAGE under non-reducing conditions with western blotting; 2.5 μM ANXA2 treated with 100 μM H2O2 with 20 μM Trx, 15 minutes at 37°C; labeled with 20 μM BIAM; complex seen as a 48 KDa band; both purified. In general terms: A western blot detects proteins with antibodies after separation by electrophoresis.

Sequences of proteins named here, by UniProt entry; tags and fusion partners are left off.
UniProt P07355: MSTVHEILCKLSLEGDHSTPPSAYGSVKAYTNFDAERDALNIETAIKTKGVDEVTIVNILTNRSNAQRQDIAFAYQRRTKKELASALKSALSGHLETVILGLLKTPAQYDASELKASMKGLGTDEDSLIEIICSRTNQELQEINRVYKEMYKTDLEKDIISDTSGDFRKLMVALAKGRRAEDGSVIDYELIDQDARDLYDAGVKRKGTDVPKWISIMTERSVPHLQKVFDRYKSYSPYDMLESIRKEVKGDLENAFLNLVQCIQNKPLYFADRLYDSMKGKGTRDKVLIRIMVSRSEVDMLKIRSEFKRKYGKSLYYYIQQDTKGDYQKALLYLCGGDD

Assay [2] addresses Annexin A2, endogenous in A549 cells (human (endogenous in A549)) (UniProt P07355). In words: co-IP; A549 cells non-treated or treated with 1 mM H2O2 for 1 hour; Triton X-100 lysis buffer (50 mM Tris pH 7.4, 0.15% Triton X-100, 150 mM NaCl, 1.5 mM EGTA); immunoprecipitation with anti-Trx, anti-ANXA2, anti-JunD (control) or IgG, protein G-Sepharose; western blotting.

These are yes or no findings as the source states them, for the method shown. For some assays here: Binding seen in cells or lysates may run through a third protein. Some binding calls cover weakened binding; strength is not graded here.

B1: thioredoxin (protein, UniProt P10599 1-105)
chain: MVKQIESKTAFQEALDAAGDKLVVVDFSATWCGPCKMIKPFFHSLSEKYSNVIFLEVDVDDCQDVASECEVKCMPTFQFFKKGQKVGEFSGANKEKLEATINELV
Turning to B1, the binding entry in assay [1] is “binds”.

B2: thioredoxin, endogenous in A549 cells (protein, UniProt P10599 1-105)
chain: B1 chain
As to B2, in assay [2], the binding entry is given as “binds”.
